For 21 molecules, activity increase (luciferase signal) results are on record in PubChem BioAssay AID624404 (Broad Institute, 2012).

Out of some 1,800 compounds screened, about 710 (39%) were called active. About 28% were inconclusive and are not listed.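 Rule for the calls: active = luciferase signal rise whose fitted curve crosses a set activity limit at or below the top valid tested dose; inconclusive = flat fit with 30 to 70% rise, or poor fit; inactive = signal falling, flat within 30%, or crossing above top dose.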 This is a selection; strong and weak results do not stand in their true shares. Measured potencies and affinities stand elsewhere.

The nature of this experiment: luciferase activators in glycosylation-insensitive reporter cells, dose response, counter-screen for N-linked glycosylation inhibitor project, D54 LucT cells, luminescence, cherry pick (AID 624404).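 Note: 0% = median neutral control signal and 100% = twice that signal.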 The following applies: D54 LucT luciferase reporter counterscreen, 24 h; at 19.5 µM (top of the series).
Regarding `CC(C)N1C(=O)/C(=C/C=C/c2ccco2)C(=O)N(Cc2ccco2)C1=O`, the activity increase (luciferase signal) was inactive: 13.5%.

Consider `Cc1ccc(-c2nc(N(C)C3CCN(C)CC3)c3ccccc3n2)cc1`, for which the activity increase (luciferase signal) was inactive: 51.2%.

In the case of `CN1CN(c2ccccc2)C2(CCN(CCCSc3ccccc3NC(=O)/C=C/c3ccccc3)CC2)C1=O`, the activity increase (luciferase signal) is inactive: -49.9%.

On to `CNC(=O)c1cccn(Cc2cc(C(F)(F)F)cc(C(F)(F)F)c2)c1=O`, for which the activity increase (luciferase signal) was inactive: 40.2%.

Consider `O=C1NC(=O)N(c2ccccc2)C(=O)/C1=C/C=C/c1ccco1`, for which the activity increase (luciferase signal) is inactive: 25.5%.

`CN(C)c1ccc(/C=C/C=C/c2sc3ccccc3[n+]2C)cc1`: the activity increase (luciferase signal) is inactive: -48.2%.

Consider `Cc1cc(C)cc(N2C(=O)NC(=O)/C(=C\C=C\c3ccco3)C2=O)c1`, for which the activity increase (luciferase signal) is inactive: -42.4%.

Take `Cc1cc(C)nc(N2Cc3ccccc3C2=N)n1`: the activity increase (luciferase signal) is inactive: 36.9%.

On to `C=CCN=C(SCC(=O)c1ccc(Cl)cc1)c1c(O)n(C)c(=O)n(C)c1=O`, for which the activity increase (luciferase signal) is inactive: 35.5%.

As to `COC(=O)C1=C(c2cc3ccccc3s2)C[C@@H]2CC[C@H]1N2C(=O)N1CCOCC1`, the activity increase (luciferase signal) was inactive: 25.6%.

Consider `CN1C(=O)C(=Cc2sc(=O)n(-c3ccccc3)c2N(C)C)C(=O)N(C)C1=O`, for which the activity increase (luciferase signal) was inactive: 37.7%.

`Cc1ccc(N2C(=O)NC(=O)/C(=C\C=C\c3ccco3)C2=O)cc1C`: the activity increase (luciferase signal) was inactive: -14.1%.

Regarding `Cn1cccc1/C=C1\C(=O)NC(=O)N(Cc2ccccc2Cl)C1=O`, the activity increase (luciferase signal) was inactive: 0.633%.

On to `COC(=O)C1=C(c2cc3ccccc3s2)C[C@@H]2CC[C@H]1N2C(=O)N1CCCCC1`, for which the activity increase (luciferase signal) was inactive: 4.2%.

Regarding `COC(=O)C1=C(c2cc3ccccc3o2)C[C@@H]2CC[C@H]1N2C(=O)N1CCCCC1`, the activity increase (luciferase signal) is inactive: 21.4%.

As for `COc1cc2c(cc1OC)-c1c3c(cc4c1[C@@H](C2)N(C)CC4)OCO3`, the activity increase (luciferase signal) is inactive: 26.9%.

Turning to `O=C1Nc2ccccc2/C1=C/c1nc2ccccc2c(=O)n1-c1ccc(O)cc1`, the activity increase (luciferase signal) is inactive: -28.1%.

Take `COC12CCC3(CC1C(C)(O)C(C)(C)C)[C@H]1Cc4ccc(O)c5c4[C@@]3(CCN1CC1CC1)C2O5` (stereo partly specified): the activity increase (luciferase signal) is inactive: -11.4%.

Regarding `Nc1c(C(=O)OCC2CCCO2)c2nc3ccccc3nc2n1Cc1cccs1` (stereo unspecified), the activity increase (luciferase signal) was inactive: -5%.

For the molecule `COC(=O)C1=C(c2cc3ccccc3o2)C[C@@H]2CC[C@H]1N2C(=O)N1CCOCC1`, the activity increase (luciferase signal) is inactive: 37.2%.

With `CCC(C)OC(=O)c1c(N)n(Cc2cccs2)c2nc3ccccc3nc12` (stereo unspecified), the activity increase (luciferase signal) is inactive: -4.78%.
